## Primary screen of a compound library

A: 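Whole-cell growth test on Mycobacterium tuberculosis, read after 4 days in a medium based on cholesterol and the lipid DPPC; the read-out is not stated. Tested at 50 µM. The record gives no direction; compounds that gave an IC50 in retests scored well above the rest, so higher reads as more growth inhibition. About 69,000 compounds were tested under these conditions; 0.54% (about 370) showed 50% or more at least once.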
B: 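Growth of Mycobacterium tuberculosis over 3 days (7H9 medium with glucose and tyloxapol); the read-out is not stated. Tested at 50 µM. The record gives no direction; compounds that gave an IC50 in retests scored well above the rest, so higher reads as more growth inhibition. Of about 69,000 compounds tested this way, about 760 (1.1%) reached 50% or more in at least one test.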

Each number is a percent effect as filed. How 0% and 100% were set is not recorded. Most values in the screen are low, and negative values occur. Compounds were drawn at random from those tested, without regard to their results. Two or more numbers in one place are separate tests of the same structure; such repeats can differ widely.

| Compound | A | B |
|---|---|---|
| `CCOc1ccc(C(=O)NC2CCN(c3ncccn3)CC2)cc1C` | -5.846 | -14.96 & 1.724 |
| `Cc1nc(NCCSc2cnn[nH]2)c2cccnc2n1` | -16.51 | 10.18 |
| `CCn1cc(N)c(-c2nnc3n2CCC3)n1` | -16.13 | -5.396 |
| `COc1cccc2cc(CNC(C)(C)C(=O)N3CCC(O)CC3)oc12` | -1.33 | -4.698 |
| `CCc1cc(NCc2cc(CC(C)C)on2)n2nccc2n1` | 4.047 | 7.482 |
| `COc1ccc(NC(=O)NCCCn2nc3ccccn3c2=O)cc1` | -16.46 | 7.236 |
| `c1ccc2nc(N3CCCC(Cn4cncn4)C3)cnc2c1` (stereo unspecified) | 11.51 | 26.05 |
| `[H][C@@]12CC(=O)N(CC)[C@@]1([H])CCN2S(=O)(=O)c1ccccc1` | -6.055 | -26.56 |
| `CC1(Cc2ccccn2)NCCc2[nH]cnc21` (stereo unspecified) | -6.096 | 3.842 |
| `Cc1cc(-c2cncnc2)ccc1OCC(N)=O` | -13.21 | -14.02 |
| `Cl.OC[C@H]1CC[C@]2(CC1)CN(Cc1ccsc1)Cc1ccccc1O2` | 6.177 | 6.621 |
| `CC(C)NC(=O)Cn1ccc2c(Cl)cccc21` | -20.78 | -1.8 |
| `Fc1cccc(CN2CCC(c3noc(-c4cnccn4)n3)CC2)c1F` | 5.755 | 11.46 |
| `COc1c(C2CCCN2C(=O)c2cnc[nH]2)c(C)nn1C` (stereo unspecified) | -3.992 | 9.66 |
| `CCC(=O)N1CCCN(C(=O)c2cc(C)cc(Br)c2O)CC1` | 4.419 | -16.9 |
| `[H][C@]12CC[C@]([H])(CN(C(=O)N(C)C)C1)N(Cc1ccc3nsnc3c1)C2` | -6.078 | -15.54 & -12.21 |
| `O=C(CCNS(=O)(=O)c1ccc2c(c1)CCCC2)NCc1ccoc1` | -21.03 | -6.031 |
| `COCC(C)N(C)C(=O)NC1CCN(S(C)(=O)=O)CC1` (stereo unspecified) | -3.114 & -5.027 | -28.75 |
| `Cc1nccn1CCC(=O)N1CCCN(CCCc2ccccc2)CC1` | 11.42 | -18.71 & 1.667 |
| `CN(C)[C@@H]1CCN(C(=O)Cc2ccc(F)cc2)[C@H]1Cc1ccncc1.O=C(O)C(F)(F)F.O=C(O)C(F)(F)F` | 13.83 & -7.888 | 2.525 |
| `COCC1c2c(cnn2CC2CCOCC2)CCN1Cc1ccoc1.O=C(O)C(F)(F)F.O=C(O)C(F)(F)F` (stereo unspecified) | 4.315 & -31.3 | -18.89 |
| `Cc1nc(-c2cc(C(=O)N3CCCN(C)CC3)c3ccccn23)cn1C.O=C(O)C(F)(F)F` | -16.61 | -56.76 & -24.06 |
| `COc1ccc(CN(C)C(=O)CSc2nnc(N)s2)c(OC)c1OC` | 3.17 | 15.15 |
| `Fc1ccccc1CN1CCCN(c2ncnc3[nH]ccc23)CC1` | 4.008 | 12.79 |
| `CN(C)C1CCN(C(=O)c2cc3c(s2)CCN3C(=O)C2CC2)CC1.O=C(O)C(F)(F)F` | -2.548 | 19.48 |
| `[H][C@@]12C[C@H](C(=O)NCc3cccnc3)[C@@]([H])(CN(Cc3ccc(C)cc3)C1)O2` | -26.63 | -5.616 & -74.07 |
| `CN(Cc1ccco1)C1CCC12CCN(C(=O)c1ccnnc1)CC2.O=C(O)C(F)(F)F` (stereo unspecified) | -22.36 | -27.45 |
| `CC(C)N1CC2(CCCN(Cc3noc(C4CCCC4)n3)C2)CCC1=O` (stereo unspecified) | 57.88 & 9.808 | -0.9226 |
| `[H][C@@]12C[C@H](C(=O)N3CCOCC3)[C@@]([H])(CN(C(=O)Nc3ccc(F)cc3)C1)O2` | -1.655 | -3.919 |
| `CS(=O)(=O)NCc1nnc2n1CCN(Cc1ccc(F)cc1)C2` | -4.808 & 29.18 | 4.691 |
| `Cc1cccc(C(C(=O)N(C)CCc2cn[nH]c2)N(C)C)c1` (stereo unspecified) | 17.05 | 2.882 |
| `CC(Cn1cncn1)NC(=O)NCC(C)(C)c1ccc(F)cc1` (stereo unspecified) | 3.926 | 22.17 |
| `CN1CCN(C(=O)c2cc[nH]c(=O)c2)Cc2ccccc21` | -0.7934 | 11.17 |
| `CCCS(=O)(=O)NCc1cccnc1OCc1ccccc1` | 6.105 | -5.321 & 30.57 |
| `[H][C@@]12CCN(c3ncccn3)C[C@@]1([H])[C@H](C(=O)NC(C)C)CCO2` | 12.23 | 11.76 |
| `Cn1cncc1CN1CCC(O)(Cn2nc(-c3cccs3)oc2=O)CC1.O=C(O)CC(O)(CC(=O)O)C(=O)O` | 22.01 | -10.91 |
| `Cc1noc(C)c1C(=O)N1CCOC2(COCCN(C(C)C)C2)C1.O=C(O)C(F)(F)F` (stereo unspecified) | -4.811 | 1.523 |
| `CC1CCCN(S(=O)(=O)NCCN/C(O)=C2/N=CC=CC2=O)C1` (stereo unspecified) | -22.86 | -45.47 |
| `Cc1cc(C(=O)N2CC[C@@H](N(C)C)[C@@H]2Cc2ccccc2)no1.O=C(O)C(F)(F)F` | -2.87 | 7.308 |
| `COCC1CC2(CCN(C(=O)c3ccc(F)cc3C)CC2)CO1` (stereo unspecified) | -3.085 | 14.98 & 2.326 |
| `CN1CCC(O)(CNCc2ccc(F)c(C(F)(F)F)c2)CC1` | 9.938 | 3.939 & 16.1 |
| `Cc1c(NC(=O)c2cnc[nH]2)cccc1C(=O)NC(C)(C)C` | 14.89 | 16.74 |
| `Cc1ccc(CC(=O)N2CCOC(c3nc(C(C)(C)C)n[nH]3)C2)cn1` (stereo unspecified) | -2.481 | 0.9756 & -6.7 |
| `NC(=O)C1CN(C(=O)Cc2cccnc2)CCN(C2CCOCC2)C1` (stereo unspecified) | 5.187 | 0.5773 |
| `Cc1cc(C(=O)N2CCC3(CC(=O)NC3=O)C2)c(-c2ccccc2)o1` (stereo unspecified) | 8.443 | 1.369 |
| `N#CCCN(C(=O)CN1CCCC1c1ccsc1)c1ccccc1` (stereo unspecified) | 11.51 | -13.94 |
| `COC(=O)c1cccn1C1CCN(C(=O)c2cc(F)ccc2F)CC1` | 3.754 | 14.34 |
| `O=C(O)C(F)(F)F.O=C(O)C(F)(F)F.[H][C@@]12CN(CC3CC3)C[C@]1([H])OCCN2c1ncccn1` | 18.71 | 14.85 |
| `CCn1c(C)nnc1CN(C)C1CCN(Cc2cnc(C)cn2)C1` (stereo unspecified) | -18.56 | -2.701 |
| `O=C(C1CCCC1)N1CC2(CCN(C3COC3)C2)Cc2ccccc21` (stereo unspecified) | 22.23 | 24.91 |
| `Cn1ncc2c(NCCC34CCCN3CCC4)nc(C3CCCC3)nc21` | 6.986 | 71.38 & 24.93 |
| `CC(=O)N1CCC(c2nc3ccc(-c4ccnn4C)cn3n2)CC1.O=C(O)C(F)(F)F` | -9.562 | 10.24 |
| `Cc1noc(C)c1C(=O)NCC(C)N(C)C` (stereo unspecified) | -11.33 | -24.64 |
| `CC1CCN(C(=O)c2cnc(CC3CCCN(C)C3)cn2)CC1` (stereo unspecified) | -8.641 | 10.1 |
| `Cc1ccc(C(=O)NCc2ccccc2S(=O)(=O)N(C)CCO)cc1F` | -3.803 & -5.551 | -11.25 |
| `[H][C@@]12C[C@H](C(=O)N(C)C)[C@@]([H])(CN(S(=O)(=O)CC(C)C)C1)O2` | 4.281 | 10.55 |
| `CN(C)c1nc2c(c(N3CCCC4(CC3)CNC(=O)O4)n1)CCCC2` (stereo unspecified) | -4.498 & -6.685 | -17.75 |
| `[H][C@]12CC[C@]([H])(CN(Cc3cccnc3)C1)N(C(=O)c1ccnc(N)c1)C2` | 0.9375 | 1.871 |
| `COc1ccc(C(CN2CCN(C)CC2)Nc2ncccn2)cc1` (stereo unspecified) | 3.611 | 31.53 & 5.163 |
| `CCOCC(=O)NCC1Cn2nnc(-c3cccc(F)c3)c2CO1` (stereo unspecified) | -21.39 | 1.994 & 6.9 |
| `CCNc1ccnc(NC2CCN(C(=O)c3ccc(C)cc3)CC2)n1` | 0.05734 | -21.97 |
| `COc1ccc(S(=O)(=O)N2CCC(OCc3ccccn3)C2)cc1Br` (stereo unspecified) | 7.471 | 7.611 |
| `CN(C)C(=O)CN1C(=O)CCC12CCN(Cc1cccs1)CC2.O=C(O)C(F)(F)F` | -8.099 & -12.01 | -18.51 |
| `O=C(O)C(F)(F)F.[H][C@@]12CCN(Cc3ccccc3OC)C[C@]1([H])O[C@@H](C(=O)N1CCCC1)C2` | -95.29 & -18.08 | -9.56 & -30.78 |
| `[H][C@@]12COC[C@]1(C(=O)NCCOC)CN(c1cc(OC)ncn1)C2` | -4.876 | -36.61 & -9.062 |
| `COc1cccc(COCC(=O)NC2CCN(CC(N)=O)CC2)c1` | -5.945 | 1.764 |

The first 5 entries again:

- CCOc1ccc(C(=O)NC2CCN(c3ncccn3)CC2)cc1C | A: -5.846%; B: -14.96% & 1.724%
- Cc1nc(NCCSc2cnn[nH]2)c2cccnc2n1 | A: -16.51%; B: 10.18%
- CCn1cc(N)c(-c2nnc3n2CCC3)n1 | A: -16.13%; B: -5.396%
- COc1cccc2cc(CNC(C)(C)C(=O)N3CCC(O)CC3)oc12 | A: -1.33%; B: -4.698%
- CCc1cc(NCc2cc(CC(C)C)on2)n2nccc2n1 | A: 4.047%; B: 7.482%

From ChEMBL document CHEMBL3988442, “University of Dundee, Small-Polar-MMV Screening Library” (2021).